Experimental data: PubChem BioAssay AID662 (National Center for Advancing Translational Sciences (NCATS), 2007)
The other results are listed elsewhere or left out. Further columns of the screen follow, without active or inactive calls. Most of these compounds were active or inconclusive in the main read-out, so they are no random draw. The note in brackets gives the kind of curve behind each potency; many fits are weak.

Test: Cell signaling CRE-BLA (Fsk stim)
Settings: CHO CRE-bla reporter (cAMP response element driving beta-lactamase), forskolin EC10, beta-lactamase ratio; measured here: 460 nm blue channel
In short: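 Beta-lactamase reporter under a cAMP responsive element in CHO cells; compounds tested in titration series against EC10 NKH 477, 3 h at 37 °C. Read-out: CCF4 FRET ratio 460nm/530nm (excitation 405nm) giving %Activity, fitted to AC50.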

Q: With `N/C(=N\O)c1ccc(NC(=O)c2ccc(Br)o2)cc1` as the molecule, how does the AC50 read?
A: 6.31 µM [falling, full curve]

Q: With `OCCN(CC(O)Cn1ccc2ccccc21)CC(O)Cn1ccc2ccccc21` (stereo not drawn) as the molecule, how does the AC50 read?
A: 20 µM [falling, partial curve, poor fit]

Q: Which AC50 does the source give for `C=CCn1c(SCC(=O)Nc2c(C)cccc2C)nnc1-c1cnccn1` here?
A: 25.1 µM [rising, single point]

Q: For `N#Cc1ccccc1-c1ccc2ncnc(NCCN3CCOCC3)c2c1`, which AC50 is on record?
A: 10 µM [rising, partial curve]

Q: With `COCCn1c(=O)c(-c2ccc(OC)cc2)nc2cnc(OC)nc21` as the molecule, how does the AC50 read?
A: 12.6 µM [rising, partial curve]

Q: With `CCCn1c(SCC(=O)Nc2sc(C)c(C)c2C(=O)OCC)nc2c1c(=O)n(C)c(=O)n2C` as the molecule, how does the AC50 read?
A: 1 µM [falling, single point]

Q: With `COC(=O)c1ccc(OC)c(CSc2nnc(COc3ccccc3)o2)c1` as the molecule, how does the AC50 read?
A: 12.6 µM [rising, single point]

Q: Which AC50 does the source give for `CC1(C)C(c2ccccc2)=[N+]([O-])CN1O` here?
A: 0.794 µM [falling, full curve]

Q: With `N#Cc1ccsc1NC(=O)COC(=O)CCCSc1nc2ccccc2s1` as the molecule, how does the AC50 read?
A: 0.2 µM [falling, full curve, poor fit]

Q: With `CC(=O)Nc1ccc(NC(=O)c2cccc(C(=O)OC(C)C)n2)cc1` as the molecule, how does the AC50 read?
A: 25.1 µM [rising, single point]

Q: For `COC(=O)c1cnn2c3c(c(C)nc12)CCCC3`, which AC50 is on record?
A: 10 µM [rising, single point]

Q: Which AC50 does the source give for `Cc1sc2nc(CN3CCOCC3)nc(Oc3ccc(NC(=O)c4ccco4)cc3)c2c1C` here?
A: 3.16 µM [rising, full curve]

Q: Which AC50 does the source give for `Fc1ccccc1CSc1ncnc2c1oc1ccccc12` here?
A: 10 µM [falling, partial curve]

Q: For `COc1ccc(CNC(=O)C(C)NC(=O)c2cc3ccccc3o2)cc1` (stereo not drawn), which AC50 is on record?
A: 0.1 µM [falling, full curve]

Q: With `CCCc1cc(=O)n2[nH]c(NCc3ccccc3Cl)nc2n1` as the molecule, how does the AC50 read?
A: 31.6 µM [falling, single point]

Q: For `Cc1cccc(CNc2ncncc2-c2ccc3c(c2)OCO3)c1`, which AC50 is on record?
A: 10 µM [rising, partial curve]

Q: With `O=C(CSc1ncccn1)NCc1ccccc1` as the molecule, how does the AC50 read?
A: 0.398 µM [falling, full curve]

Q: For `CCCCCC(=O)Nc1cc(N(C)C)nc2ccccc12`, which AC50 is on record?
A: 0.398 µM [rising, full curve, poor fit]

Q: With `O=C(CCC(=O)N1CCCC1)Nc1nnc(C2CCCCC2)s1` as the molecule, how does the AC50 read?
A: 5.01 µM [falling, single point]

Q: With `COCCn1c(=O)c(-c2cccc(F)c2)nc2cncnc21` as the molecule, how does the AC50 read?
A: 12.6 µM [rising, partial curve]

Q: Which AC50 does the source give for `NC(=O)CSC1=Nc2ccccc2C2=NC(CC(=O)NCc3cccs3)C(=O)N12` (stereo not drawn) here?
A: 0.0251 µM [falling, full curve]

Q: For `CCOc1cc(N2CCOCC2)c(OCC)cc1NC(=O)Cc1cn2ccsc2n1`, which AC50 is on record?
A: 20 µM [rising, single point]

Q: Which AC50 does the source give for `O=C(NC(Cc1ccccc1)C(=O)O)OCc1ccccc1` (stereo not drawn) here?
A: 0.794 µM [falling, full curve]

Q: With `COc1cc(C(=O)OCn2nnc3ccccc3c2=O)cc(OC)c1OC` as the molecule, how does the AC50 read?
A: 5.01 µM [rising, partial curve]

Q: With `N#Cc1c(-c2ccccc2)nc(N2CCOCC2)[nH]c1=O` as the molecule, how does the AC50 read?
A: 20 µM [falling, single point]

Q: For `CCOC(=O)C1=C(CNCc2ccccc2Cl)NC(=O)NC1c1ccc2c(c1)OCO2` (stereo not drawn), which AC50 is on record?
A: 12.6 µM [rising, partial curve]

Q: With `Cc1nn(-c2ccccc2)c2c1P(=O)(O)/C(=C1\N(C)c3ccccc3C1(C)C)C=N2` as the molecule, how does the AC50 read?
A: 12.6 µM [rising, single point]

Q: With `CC(=O)Nc1ccc(NC(=O)c2ccccc2N(C)S(C)(=O)=O)cc1` as the molecule, how does the AC50 read?
A: 12.6 µM [falling, single point]

Q: With `c1ccc(Nc2nc3ccccc3[nH]2)nc1` as the molecule, how does the AC50 read?
A: 0.2 µM [falling, full curve, poor fit]

Q: With `COC(=O)c1ccsc1NC(=O)CSc1nnnn1Cc1ccccc1` as the molecule, how does the AC50 read?
A: 0.0251 µM [falling, full curve, poor fit]

Q: Which AC50 does the source give for `Cn1c(=O)[nH]c(=O)c2c1nc(Br)n2CCCSc1nc2ccccc2o1` here?
A: 7.94 µM [rising, partial curve]

Q: With `Cc1ccc(NC(=O)C2CCN(S(=O)(=O)c3cccc4nonc34)CC2)nc1` as the molecule, how does the AC50 read?
A: 1 µM [falling, partial curve, poor fit]

Q: Which AC50 does the source give for `CCOC(=O)N1CCN(C(=O)CSCC(=O)Nc2nc(-c3ccc(OC)cc3)cs2)CC1` here?
A: 25.1 µM [falling, partial curve]

Q: Which AC50 does the source give for `CCOC(=O)Cc1csc(NC(=O)c2ccco2)n1` here?
A: 0.00316 µM [falling, full curve, poor fit]

Q: Which AC50 does the source give for `N#Cc1c2c(c(N3CCN(CCO)CC3)n3c1nc1ccccc13)CCCC2` here?
A: 15.8 µM [rising, partial curve]

Q: Which AC50 does the source give for `Cc1ccc2cc3cc(C(=O)NCCC(C)C)oc3nc2c1` here?
A: 0.398 µM [falling, partial curve]

Q: With `CCC(=O)N1CCc2cc(S(=O)(=O)NCCCN(CC)Cc3ccccc3)ccc21` as the molecule, how does the AC50 read?
A: 0.0158 µM [rising, single point]

Q: For `N=c1n(Cc2ccccc2)c2ccccc2n1CC(O)COc1ccccc1` (stereo not drawn), which AC50 is on record?
A: 2.51 µM [falling, full curve]

Q: Which AC50 does the source give for `c1ccc(CNc2ncnc3ccccc23)cc1` here?
A: 3.98 µM [falling, partial curve]

Q: With `O=C(CC1OC(=O)c2ccccc21)NC1CCCCC1` (stereo not drawn) as the molecule, how does the AC50 read?
A: 5.01 µM [falling, single point]

Q: For `COc1cc(NC(=O)c2ccco2)c(OC)cc1NC(=O)Nc1cccc(Cl)c1`, which AC50 is on record?
A: 25.1 µM [rising, partial curve]

Q: Which AC50 does the source give for `CCCn1c(-c2ccc(F)cc2)nc2c(NCCCCN3CCCC3)nc(C)nc21` here?
A: 6.31 µM [rising, partial curve]

Q: With `Cc1[nH]c(=O)[nH]c(=O)c1CSc1nnc(CCCCCNC(=O)OC(C)(C)C)o1` as the molecule, how does the AC50 read?
A: 1.58 µM [falling, single point]

Q: For `C=CCOC(=O)Nc1c(C(=O)OC)[nH]c2ccc(Cl)cc12`, which AC50 is on record?
A: 10 µM [falling, partial curve]

Q: For `Cc1ccc(OCc2nnc(SCC(=O)Nc3cc(C)on3)n2C)cc1`, which AC50 is on record?
A: 0.1 µM [falling, single point]

Q: Which AC50 does the source give for `COc1ccc(OC)c(S(=O)(=O)N2CCC(C(=O)Nc3ccc(C)c(C)c3)CC2)c1` here?
A: 12.6 µM [falling, single point]

Q: With `Cc1noc(C)c1CN1C(=O)NC(Cc2ccccc2)(Cc2ccccc2)C1=O` as the molecule, how does the AC50 read?
A: 0.126 µM [falling, single point]

Q: Which AC50 does the source give for `O=C(CN(C(=O)CNS(=O)(=O)c1ccccc1)c1ccc2c(c1)OCCO2)NCc1ccco1` here?
A: 3.16 µM [falling, single point]

Q: Which AC50 does the source give for `O=C(Nc1cccc(C(F)(F)F)c1)c1cc(S(=O)(=O)N2CCCCC2)ccc1N1CCOCC1` here?
A: 2.51 µM [falling, full curve, poor fit]

Q: For `C/C(Cl)=C\CSc1nnc2n(N)c(=O)c3ccccc3n12`, which AC50 is on record?
A: 25.1 µM [rising, single point]

Q: Which AC50 does the source give for `CCOc1ccccc1C(=O)Nc1nccs1` here?
A: 5.01 µM [rising, partial curve]

Q: Which AC50 does the source give for `Cn1c(Cc2ccccc2)nnc1SCC(=O)Nc1ccccc1N1CCOCC1` here?
A: 0.0251 µM [rising, full curve, poor fit]

Q: With `COc1cccc(NC(=O)CCS(=O)(=O)c2cccs2)c1` as the molecule, how does the AC50 read?
A: 5.01 µM [falling, partial curve]

Q: Which AC50 does the source give for `CC(C)NC(=O)CSc1nnc(-c2ccc(C(C)(C)C)cc2)n1C` here?
A: 0.126 µM [falling, full curve]

Q: For `COC(=O)Cn1nc(-c2ccc(C)c(S(=O)(=O)N(C)C)c2)c2ccccc2c1=O`, which AC50 is on record?
A: 1.58 µM [rising, partial curve]

Q: With `O=C(N1CCCC1)n1c(Cc2ccccc2)nc2ccccc21` as the molecule, how does the AC50 read?
A: 0.00631 µM [falling, full curve, poor fit]

Q: For `CCOc1ccc2c(c1)c1nnc(SCC3CCCO3)nc1n2C` (stereo not drawn), which AC50 is on record?
A: 6.31 µM [rising, partial curve]

Q: Which AC50 does the source give for `c1ccc2[nH]c(-c3cscn3)nc2c1` here?
A: 12.6 µM [rising, single point]

Q: With `Cc1ccc(S(=O)(=O)NCC(=O)N(CCc2ccccc2)CC(=O)NCc2ccco2)cc1` as the molecule, how does the AC50 read?
A: 10 µM [falling, partial curve]

Q: For `N#Cc1cccc(-c2nc(Nc3ccccc3)c3ccccc3n2)c1`, which AC50 is on record?
A: 6.31 µM [rising, partial curve]

Q: For `O=C1CSC2=NCN(c3ccc4c(c3)OCO4)CN12`, which AC50 is on record?
A: 0.0631 µM [rising, single point]

Q: For `COc1ccc(Oc2ncc3nc(CCc4ccccc4)c(=O)n(CCC#N)c3n2)cc1`, which AC50 is on record?
A: 12.6 µM [rising, single point]

Q: With `O=C(Nc1nc2nc(-c3ccccc3)cc(-c3ccccc3)n2n1)c1ccco1` as the molecule, how does the AC50 read?
A: 10 µM [rising, single point]

Q: For `COc1ccc(C2CC3CC(c4ccccc4)N2O3)cc1` (stereo not drawn), which AC50 is on record?
A: 0.0316 µM [falling, partial curve, poor fit]

Q: For `c1ccc2c(c1)Cn1nc(Cc3nc4c(s3)CCCC4)nc1-2`, which AC50 is on record?
A: 25.1 µM [rising, single point]

Q: For `CCOC(=O)c1ccc(NC(=O)CSc2nc3c(c(=O)n2CC)SC(C)C3)cc1` (stereo not drawn), which AC50 is on record?
A: 10 µM [rising, partial curve]

Q: Which AC50 does the source give for `CCOC(=O)C1=C(C)N=c2s/c(=C\C(=O)OC)c(=O)n2C1c1ccc(OC)cc1` (stereo not drawn) here?
A: 15.8 µM [falling, single point]

Q: For `COc1ccc(NC2=Nc3ccccc3CC2)cc1`, which AC50 is on record?
A: 3.16 µM [falling, single point]
